In article PMC7362500:
These are yes or no findings as the source states them, for the method shown. In cells and extracts the contact can be indirect. A result given as binding can be weak or reduced; the word gives no strength. Where a sequence is shown, tags or fusion partners need not be part of it.

Biological target: PD-L1 ICD (intracellular domain)
Assay: co-IP; PD-L1 with fragments of USP22 (Fig. 3d) and USP22 with fragments of PD-L1 (Fig. 3e); cells and antibodies not stated

- binding: binds
B1: USP22-HA (Ubiquitin Specific Peptidase 22) (enzyme, UniProt Q9UPT9 1-525)
chain: MVSRPEPEGEAMDAELAVAPPGCSHLGSFKVDNWKQNLRAIYQCFVWSGTAEARKRKAKSCICHVCGVHLNRLHSCLYCVFFGCFTKKHIHEHAKAKRHNLAIDLMYGGIYCFLCQDYIYDKDMEIIAKEEQRKAWKMQGVGEKFSTWEPTKRELELLKHNPKRRKITSNCTIGLRGLINLGNTCFMNCIVQALTHTPLLRDFFLSDRHRCEMQSPSSCLVCEMSSLFQEFYSGHRSPHIPYKLLHLVWTHARHLAGYEQQDAHEFLIAALDVLHRHCKGDDNGKKANNPNHCNCIIDQIFTGGLQSDVTCQVCHGVSTTIDPFWDISLDLPGSSTPFWPLSPGSEGNVVNGESHVSGTTTLTDCLRRFTRPEHLGSSAKIKCSGCHSYQESTKQLTMKKLPIVACFHLKRFEHSAKLRRKITTYVSFPLELDMTPFMASSKESRMNGQYQQPTDSLNNDNKYSLFAVVNHQGTLESGHYTSFIRQHKDQWFKCDDAIITKASIKDVLDSEGYLLFYHKQFLEYE
